{"source": "the supplement of paper PMC5949888", "note": "Most values lie at the floor of the assay. Slopes are relative: functional sequences can read slightly below zero."}
{"tested_on": "Saccharomyces cerevisiae PS128 hsf1 delta, HSF1(1-493) fusion", "assay": "growth estimate (transactivation domain function in HSF1 fusion, heat-shock survival) (a.u. (slope of normalised read count over time)); higher = stronger growth at 37°C, i.e. more transactivation activity", "settings": "library: random library", "method": "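Random 60-nt DNA library encoding peptides of up to 20 aa, fused to the C-terminus of yeast HSF1 residues 1-493 (C-terminal TAD deleted) and expressed from the native HSF1 promoter on a CEN plasmid in hsf1-deleted S. cerevisiae PS128. Cells were selected at 37°C on -trp 5-FOA plates for 0, 2, 4, 6 and 8 days and amplicons were sequenced. Growth estimate is the slope of a robust linear fit of total-sum-normalised read counts (normalised to the first time point) over time, using at least 2 replicates. Sequences are classed functional (TAD activity) above a threshold of -0.13, set from stop-codon control sequences.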"}
{"substance": "GLAEHYLTGFAGFTCALRRT", "growth estimate": "< -0.25"}
{"substance": "GLAGRLNFLNRVLTSLNGGI", "growth estimate": "< -0.25"}
{"substance": "GLANRLHSSCEGR", "growth estimate": "< -0.25"}
{"substance": "GLARVRGCFHYNLRVTIHS", "growth estimate": "< -0.25"}
{"substance": "GLATLAGEL", "growth estimate": "< -0.25"}
{"substance": "GLCRL", "growth estimate": "< -0.25"}
{"substance": "GLCRYAIASRLLYTMKHQDG", "growth estimate": "< -0.25"}
{"substance": "GLCSSSGGTWAGLQSRAFGH", "growth estimate": "< -0.25"}
{"substance": "GLDFF", "growth estimate": -0.19}
{"substance": "GLDFSRRGLPSS", "growth estimate": "< -0.25"}
{"substance": "GLDGQRCGKLCSKVRFLTPL", "growth estimate": "< -0.25"}
{"substance": "GLDWCVS", "growth estimate": "< -0.25"}
{"substance": "GLDYVSSRLQSGP", "growth estimate": "< -0.25"}
{"substance": "GLEGIYSRENATGRGHMSAA", "growth estimate": "< -0.25"}
{"substance": "GLEP", "growth estimate": "< -0.25"}
{"substance": "GLFFQ", "growth estimate": "< -0.25"}
{"substance": "GLFLGDRGHTKPRKSGAAQS", "growth estimate": "< -0.25"}
{"substance": "GLFTGRDGGTNREVHIGRCD", "growth estimate": "< -0.25"}
{"substance": "GLFVPTGADTFTLSRTGPTI", "growth estimate": "< -0.25"}
{"substance": "GLGGSAVKLLISKTVSVVSP", "growth estimate": "< -0.25"}
{"substance": "GLGGSLRMRSEGQNTPGYNL", "growth estimate": "< -0.25"}
{"substance": "GLGRDRSI", "growth estimate": "< -0.25"}
{"substance": "GLGRSRSQTIIPPVKMGAVT", "growth estimate": "< -0.25"}
{"substance": "GLGVVFEIHNVRKLSTGPVL", "growth estimate": "< -0.25"}
{"substance": "GLHTSTHPDD", "growth estimate": "< -0.25"}
{"substance": "GLIAKSTVGASRPHVPKHRD", "growth estimate": "< -0.25"}
{"substance": "GLIEAAGRQWENTDCETVMR", "growth estimate": "< -0.25"}
{"substance": "GLILGESIKPIPVCDSSLFY", "growth estimate": "< -0.25"}
{"substance": "GLILRREEELPGYGC", "growth estimate": -0.245}
{"substance": "GLINSCSNRCTRGGSRLWQG", "growth estimate": "< -0.25"}
{"substance": "GLISTRVVQGHIGYLRFLVV", "growth estimate": -0.246}
{"substance": "GLKF", "growth estimate": "< -0.25"}
{"substance": "GLKI", "growth estimate": "< -0.25"}
{"substance": "GLKYPTRAFQRFFGYKVAWV", "growth estimate": "< -0.25"}
{"substance": "GLLEENCTNCGKS", "growth estimate": "< -0.25"}
{"substance": "GLLHAKRLTLRHAGILIGAS", "growth estimate": "< -0.25"}
{"substance": "GLLLGRNRSPPVSLSG", "growth estimate": "< -0.25"}
{"substance": "GLLMVNRPRSSHISA", "growth estimate": "< -0.25"}
{"substance": "GLLWLEGVLLNVNIAIKNDI", "growth estimate": "< -0.25"}
{"substance": "GLMCKTWDTLSRVTVLLDGT", "growth estimate": "< -0.25"}
{"substance": "GLMIMRSGRGTKRLERKSSC", "growth estimate": "< -0.25"}
{"substance": "GLNRKPTQIFTLRLEVFRAG", "growth estimate": "< -0.25"}
{"substance": "GLNSS", "growth estimate": -0.239}
{"substance": "GLPENTEKVCDF", "growth estimate": "< -0.25"}
{"substance": "GLPNGLAMMVTRGTRPGN", "growth estimate": "< -0.25"}
{"substance": "GLPRCSAIYWAYSCGHRLLQ", "growth estimate": "< -0.25"}
{"substance": "GLPSKDSLRLLGITPQTFMR", "growth estimate": "< -0.25"}
{"substance": "GLRARANKRLSRWSPLSSR", "growth estimate": "< -0.25"}
{"substance": "GLRCGLGFESQNPQSKNQPG", "growth estimate": "< -0.25"}
{"substance": "GLRDWYHGSGVWERMVKDAL", "growth estimate": "< -0.25"}
{"substance": "GLRGSRDYVDQKSGLPNIIG", "growth estimate": "< -0.25"}
{"substance": "GLRHQLWDWLLVGVRTKACT", "growth estimate": "< -0.25"}
{"substance": "GLRRA", "growth estimate": "< -0.25"}
{"substance": "GLRRLLEQKQ", "growth estimate": -0.231}
{"substance": "GLRSMYLGNT", "growth estimate": "< -0.25"}
{"substance": "GLRTDLREGSPASATDGSGN", "growth estimate": "< -0.25"}
{"substance": "GLS", "growth estimate": "< -0.25"}
{"substance": "GLSARCSE", "growth estimate": "< -0.25"}
{"substance": "GLSDKKKRSQASKVWGTADS", "growth estimate": "< -0.25"}
{"substance": "GLSGSVVAVYLKFEVGTYKE", "growth estimate": "< -0.25"}
{"substance": "GLTCTYTGMS", "growth estimate": "< -0.25"}
{"substance": "GLTKRCGRRADDGFEGMINR", "growth estimate": "< -0.25"}
{"substance": "GLTQKYRSRRHVGILGVNRY", "growth estimate": "< -0.25"}
{"substance": "GLTTVQHK", "growth estimate": "< -0.25"}
{"substance": "GLV", "growth estimate": "< -0.25"}
{"substance": "GLVCCEFKVSLRLAYQGNRA", "growth estimate": "< -0.25"}
{"substance": "GLVGDCTTK", "growth estimate": "< -0.25"}
{"substance": "GLVLICRCGSRESRGWPFGI", "growth estimate": "< -0.25"}
{"substance": "GLVRAR", "growth estimate": "< -0.25"}
{"substance": "GLVSRPRGANSYTSSRGYLH", "growth estimate": -0.231}
{"substance": "GLVVLARDVNVGSSRSGTPS", "growth estimate": "< -0.25"}
{"substance": "GLVWNDLCKMYIVRAEIDRK", "growth estimate": "< -0.25"}
{"substance": "GLVWQHPSFWST", "growth estimate": "< -0.25"}
{"substance": "GLWIVQSDVRRVTSHVSNEC", "growth estimate": "< -0.25"}
{"substance": "GLWLFSRRLLCRSTGRAIRP", "growth estimate": "< -0.25"}
{"substance": "GLWSHPTLLIRIRATGPRRR", "growth estimate": "< -0.25"}
{"substance": "GLYRIFYTISDALDRLSYHH", "growth estimate": "< -0.25"}
{"substance": "GLYRSKRGIMHRLDEPPSRR", "growth estimate": "< -0.25"}
{"substance": "GMCGH", "growth estimate": "< -0.25"}
{"substance": "GMENGYVDM", "growth estimate": "< -0.25"}
{"substance": "GMIMTQSGTSGFTSKCIGFG", "growth estimate": -0.245}
{"substance": "GMLPR", "growth estimate": "< -0.25"}
{"substance": "GMLRINEVHAHGSRGSSVPD", "growth estimate": "< -0.25"}
{"substance": "GMLSGRLAC", "growth estimate": -0.228}
{"substance": "GMNGPPYHGPVGMWPQMRSQ", "growth estimate": "< -0.25"}
{"substance": "GMPDGRPDFTIVTGDADIAP", "growth estimate": "< -0.25"}
{"substance": "GMRA", "growth estimate": -0.0944}
{"substance": "GMRVGSGPMWG", "growth estimate": "< -0.25"}
{"substance": "GMWVQKFSELRKTLVSGNRS", "growth estimate": "< -0.25"}
{"substance": "GNANLGPFQFIKLFAAKRAN", "growth estimate": "< -0.25"}
{"substance": "GNAPSGIYPVENSGVKAGFS", "growth estimate": "< -0.25"}
{"substance": "GNAVTPYLRGDLG", "growth estimate": "< -0.25"}
{"substance": "GNAYGVYAHGWRREFSRVCQ", "growth estimate": "< -0.25"}
{"substance": "GNDFRGGRCRG", "growth estimate": "< -0.25"}
{"substance": "GNDVLVSPRLPKCSRPRTFA", "growth estimate": "< -0.25"}
